Values of other authors in US8846115B2, “Anti-inflammatory cyclooxygenase inhibitors” (Metaproteomics, LLC, priority 2001, dated 2014).
For at least one compound, name, drawing or mass did not settle the structure.

Assays:
[1] = system: arachidonic acid-induced inflammatory ear edema; settings: mice; Yasukawa et al, Oncology 1995; cited from earlier work
skin tumor formation = settings: following initiation with a chemical challenge; Yasukawa et al 1995; cited from earlier work
[2] = biological target: TNFalpha-dependent cyclooxygenase-2 induction; settings: Yamamoto et al, FEBS Lett 2000; read-out: IC(50) for suppression of TNFalpha-dependent cyclooxygenase-2 induction; cited from earlier work

SMILES: CC(C)=CCC1C(=O)C(C(=O)CC(C)C)=C(O)C(O)(CC=C(C)C)C1=O (stereo not drawn) [humulone]
- Inhibition of arachidonic acid-induced inflammatory ear edema [1]: inhibited arachidonic acid-induced inflammatory ear edema
- Inhibition of skin tumor formation (skin tumor formation): inhibited skin tumor formation
- IC50 [2]: ~0.03 µM
